Assay results published in US20070054863A1.
Results are given in words; binding and its absence hold for the method and conditions named. For some assays here: In cells and extracts the contact can be indirect. Some entries that bind do so weakly or less than the wild type. For some assays here: Where a sequence is shown, tags or fusion partners need not be part of it.

Amino acid sequences for entries named in this document (tags omitted).
UniProt P10415: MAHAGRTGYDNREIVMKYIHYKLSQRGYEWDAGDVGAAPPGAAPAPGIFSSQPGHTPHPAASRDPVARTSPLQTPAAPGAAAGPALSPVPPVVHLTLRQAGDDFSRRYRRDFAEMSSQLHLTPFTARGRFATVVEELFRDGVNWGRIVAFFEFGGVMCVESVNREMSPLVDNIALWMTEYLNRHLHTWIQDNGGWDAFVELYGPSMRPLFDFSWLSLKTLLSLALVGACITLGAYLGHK

Experiments:
Bcl-2 [1] = biological target: Bcl-2 (UniProt P10415); test: immunoprecipitation assays
myc-tagged Bcl-2 [2] = biological target: myc-tagged Bcl-2 (UniProt P10415); test: co-immunoprecipitation, immunoblot (FIG. 19)
myc-tagged Bcl-B [3] = biological target: T1, myc-tagged Bcl-B (UniProt Q9HD36); test: co-immunoprecipitation, immunoblot (FIG. 19)
T1 sequence (looked up): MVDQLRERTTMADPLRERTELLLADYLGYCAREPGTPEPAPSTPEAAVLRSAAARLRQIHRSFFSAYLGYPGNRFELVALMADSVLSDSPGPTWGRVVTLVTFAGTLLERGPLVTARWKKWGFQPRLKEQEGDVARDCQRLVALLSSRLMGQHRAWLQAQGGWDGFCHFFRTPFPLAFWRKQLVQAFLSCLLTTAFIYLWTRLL

myc-tagged Bfl-1 [4] = biological target: T2, myc-tagged Bfl-1 (UniProt Q16548); test: co-immunoprecipitation, immunoblot (FIG. 19)
T2 sequence (looked up): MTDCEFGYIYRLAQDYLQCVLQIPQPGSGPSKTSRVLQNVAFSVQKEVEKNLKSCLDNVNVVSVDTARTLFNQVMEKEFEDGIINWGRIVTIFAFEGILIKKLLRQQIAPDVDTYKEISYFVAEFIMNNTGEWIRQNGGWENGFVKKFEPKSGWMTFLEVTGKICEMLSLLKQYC

Bcl-2 [5] = biological target: Bcl-2 (UniProt P10415); test: co-immunoprecipitation with anti-Bcl-2 antibody
Bcl-2 [6] = biological target: Bcl-2 (UniProt P10415); test: co-immunoprecipitation with anti-Bcl-2 antibody, HEK293T cells
myc-tagged Bcl-2 [7] = biological target: myc-tagged Bcl-2 (UniProt P10415); test: co-immunoprecipitation with anti-Myc antibody, anti-GFP immunoblot, HEK293T cells
myc-tagged Bcl-B [8] = biological target: T1, myc-tagged Bcl-B; test: as above
myc-tagged Bfl-1 [9] = biological target: T2, myc-tagged Bfl-1; test: as above
GST-Bcl-2 [GST: P08515] [10] = test: circular dichroism
GST-Bcl-2 [GST: P08515] [11] = test: fluorescence polarization competition

Measured: binding

FSRSLHSLL (peptide, not shown: large carriers) [GFP-Nur77/489-497]
not listed: GST-Bcl-2 [GST: P08515] [10] | GST-Bcl-2 [GST: P08515] [11]
binds: all other assays above

FSRSLHSLL (N-terminal acetyl; C-terminal amide (said of all peptides)) [NuBCP-9 (unconjugated)]
binds: GST-Bcl-2 [GST: P08515] [10] | GST-Bcl-2 [GST: P08515] [11]
